{"source": "the supplement of paper PMC8728848", "binders": {"B1": {"name": "PX14379D-pdi-530-26-530 (Parabacteroides distasonis) (protein)", "chain": "DETVYDKLPADDFGQSTAELNALIGNSHNTMKKFWTEYMHLSECSGSMAVTPTRRGGDWYDGGQYREIYMHTWTSQTSRVKSAWKAATEAIGTCNEAIRKLQNSEILTEEEKAQDVADLRGVRAFWIYVMMDYWGNIPLLTEFHPTDKVFPGNSSRQEVFDWLIQEVEEIKDICPPATTENYGSFTQGAAYSLLAKLYLNAEAWGVTFSGNAYQKVIDNCDKVMAMGYILEPNWKDNFSVTNENSKEAILAATFSSSDTGNDGNVKNELHNNTLHYKDYLSLGITASGTWNGICAQPEYVRLFDEEDARLDGTFLTGLMIDKSTGKPIMTDHNNELNHTIDVNMIPGMEYDGTNWSAVEQHDGARCFKWEFASDLTSSMGNDFHIFRLADIYLMKAEALLRGGGSVSEATALVNTIRERGYGNSDHNYATVTLKEVQLERRLELAWEVYSRQDDIRFGCFTTGMWPQSNCERKADDYLKLLPVSQDAWQVNPNLKQNPGYAAFSK"}}, "test_in_all_cases": "glycan array binding signal (z-score within array); higher = stronger binding", "conditions_in_all_cases": "glycan notation: IUPAC condensed, linker removed", "key": {"[1]": {"molecular_target": "Fuc(a1-2)Gal", "outline": "(§1)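 Glycan array binding is given as a within-array Z-score, which can be read as non-binding when negative. The arrays, 3228 of them, came from the Consortium for Functional Glycomics database and were retained only where the protein sequence was available. Z-scores were averaged across arrays of the same protein sequence at different concentrations or buffers and across linkers.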"}, "[2]": {"molecular_target": "Fuc(a1-2)Gal(b1-3)GalNAc", "outline": "as §1"}, "[3]": {"molecular_target": "Fuc(a1-2)Gal(b1-3)GalNAc(a1-3)[Fuc(a1-2)]Gal(b1-4)Glc", "outline": "as §1"}, "[4]": {"molecular_target": "Fuc(a1-2)Gal(b1-3)GalNAc(a1-3)[Fuc(a1-2)]Gal(b1-4)GlcNAc", "outline": "as §1"}, "[5]": {"molecular_target": "Fuc(a1-2)Gal(b1-3)GalNAc(b1-3)Gal", "outline": "as §1"}, "[6]": {"molecular_target": "Fuc(a1-2)Gal(b1-3)GalNAc(b1-3)Gal(a1-4)Gal(b1-4)Glc", "outline": "as §1"}, "[7]": {"molecular_target": "Fuc(a1-2)Gal(b1-3)GalNAc(b1-4)[Neu5Ac(a2-3)]Gal(b1-4)Glc", "outline": "as §1"}, "[8]": {"molecular_target": "Fuc(a1-2)Gal(b1-3)GlcNAc", "outline": "as §1"}, "[9]": {"molecular_target": "Fuc(a1-2)Gal(b1-3)GlcNAc(b1-2)Man(a1-3)[Fuc(a1-2)Gal(b1-3)GlcNAc(b1-2)Man(a1-6)]Man(b1-4)GlcNAc(b1-4)GlcNAc", "outline": "as §1"}, "[10]": {"molecular_target": "Fuc(a1-2)Gal(b1-3)GlcNAc(b1-2)Man(a1-3)[Fuc(a1-2)Gal(b1-3)GlcNAc(b1-2)Man(a1-6)]Man(b1-4)GlcNAc(b1-4)[Fuc(a1-6)]GlcNAc", "outline": "as §1"}, "[11]": {"molecular_target": "Fuc(a1-2)Gal(b1-3)GlcNAc(b1-3)Gal(b1-4)Glc", "outline": "as §1"}, "[12]": {"molecular_target": "Fuc(a1-2)Gal(b1-3)GlcNAc(b1-3)GalNAc", "outline": "as §1"}, "[13]": {"molecular_target": "Fuc(a1-2)Gal(b1-3)GlcNAc(b1-3)[Fuc(a1-2)Gal(b1-3)GlcNAc(b1-6)]GalNAc", "outline": "as §1"}, "[14]": {"molecular_target": "Fuc(a1-2)Gal(b1-3)GlcNAc(b1-3)[Gal(b1-4)GlcNAc(b1-6)]Gal(b1-4)Glc", "outline": "as §1"}, "[15]": {"molecular_target": "Fuc(a1-2)Gal(b1-3)GlcNAc(b1-3)[Neu5Ac(a2-6)Gal(b1-4)GlcNAc(b1-6)]Gal(b1-4)Glc", "outline": "as §1"}, "[16]": {"molecular_target": "Fuc(a1-2)Gal(b1-3)GlcNAc6S", "outline": "as §1"}, "[17]": {"molecular_target": "Fuc(a1-2)Gal(b1-3)[Fuc(a1-4)]GlcNAc", "outline": "as §1"}, "[18]": {"molecular_target": "Fuc(a1-2)Gal(b1-3)[Fuc(a1-4)]GlcNAc(b1-2)Man(a1-3)[Fuc(a1-2)Gal(b1-3)[Fuc(a1-4)]GlcNAc(b1-2)Man(a1-3)]Man(b1-4)GlcNAc(b1-4)GlcNAc", "outline": "as §1"}, "[19]": {"molecular_target": "Fuc(a1-2)Gal(b1-3)[Fuc(a1-4)]GlcNAc(b1-2)Man(a1-3)[Fuc(a1-2)Gal(b1-3)[Fuc(a1-4)]GlcNAc(b1-2)Man(a1-6)]Man(b1-4)GlcNAc(b1-4)[Fuc(a1-6)]GlcNAc(b1-4)[Fuc(a1-6)]GlcNAc", "outline": "as §1"}, "[20]": {"molecular_target": "Fuc(a1-2)Gal(b1-3)[Fuc(a1-4)]GlcNAc(b1-3)[Fuc(a1-3)[Gal(b1-4)]GlcNAc(b1-6)]Gal(b1-4)Glc", "outline": "as §1"}, "[21]": {"molecular_target": "Fuc(a1-2)Gal(b1-3)[Fuc(a1-4)]GlcNAc(b1-3)[Gal(b1-4)GlcNAc(b1-6)]Gal(b1-4)Glc", "outline": "as §1"}, "[22]": {"molecular_target": "Fuc(a1-2)Gal(b1-4)Glc", "outline": "as §1"}, "[23]": {"molecular_target": "Fuc(a1-2)Gal(b1-4)Glc6S", "outline": "as §1"}, "[24]": {"molecular_target": "Fuc(a1-2)Gal(b1-4)GlcNAc", "outline": "as §1"}, "[25]": {"molecular_target": "Fuc(a1-2)Gal(b1-4)GlcNAc(b1-2)Man", "outline": "as §1"}, "[26]": {"molecular_target": "Fuc(a1-2)Gal(b1-4)GlcNAc(b1-2)Man(a1-3)[Fuc(a1-2)Gal(b1-4)GlcNAc(b1-2)Man(a1-6)]Man(b1-4)GlcNAc(b1-4)GlcNAc", "outline": "as §1"}, "[27]": {"molecular_target": "Fuc(a1-2)Gal(b1-4)GlcNAc(b1-2)Man(a1-3)[Fuc(a1-2)Gal(b1-4)GlcNAc(b1-2)Man(a1-6)]Man(b1-4)GlcNAc(b1-4)[Fuc(a1-6)]GlcNAc", "outline": "as §1"}, "[28]": {"molecular_target": "Fuc(a1-2)Gal(b1-4)GlcNAc(b1-2)[Fuc(a1-2)Gal(b1-4)GlcNAc(b1-4)]Man(a1-3)[Fuc(a1-2)Gal(b1-4)GlcNAc(b1-2)Man(a1-6)]Man(b1-4)GlcNAc(b1-4)GlcNAc", "outline": "as §1"}, "[29]": {"molecular_target": "Fuc(a1-2)Gal(b1-4)GlcNAc(b1-3)Gal(b1-4)GlcNAc", "outline": "as §1"}, "[30]": {"molecular_target": "Fuc(a1-2)Gal(b1-4)GlcNAc(b1-3)Gal(b1-4)GlcNAc(b1-2)Man(a1-3)[Fuc(a1-2)Gal(b1-4)GlcNAc(b1-3)Gal(b1-4)GlcNAc(b1-2)Man(a1-6)]Man(b1-4)GlcNAc(b1-4)GlcNAc", "outline": "as §1"}}, "note": "The list shows a part of the results.", "data": [{"binder": "B1", "values": [{"measurement": "glycan array binding signal (z-score)", "setting": "[1]", "value": -0.058}, {"measurement": "glycan array binding signal (z-score)", "setting": "[2]", "value": -0.542}, {"measurement": "glycan array binding signal (z-score)", "setting": "[3]", "value": 0.054}, {"measurement": "glycan array binding signal (z-score)", "setting": "[4]", "value": -1.42}, {"measurement": "glycan array binding signal (z-score)", "setting": "[5]", "value": -0.081}, {"measurement": "glycan array binding signal (z-score)", "setting": "[6]", "value": -0.695}, {"measurement": "glycan array binding signal (z-score)", "setting": "[7]", "value": -0.701}, {"measurement": "glycan array binding signal (z-score)", "setting": "[8]", "value": -0.334}, {"measurement": "glycan array binding signal (z-score)", "setting": "[9]", "value": 0.9}, {"measurement": "glycan array binding signal (z-score)", "setting": "[10]", "value": -0.29}, {"measurement": "glycan array binding signal (z-score)", "setting": "[11]", "value": -0.909}, {"measurement": "glycan array binding signal (z-score)", "setting": "[12]", "value": -0.824}, {"measurement": "glycan array binding signal (z-score)", "setting": "[13]", "value": -0.372}, {"measurement": "glycan array binding signal (z-score)", "setting": "[14]", "value": -0.564}, {"measurement": "glycan array binding signal (z-score)", "setting": "[15]", "value": 0.567}, {"measurement": "glycan array binding signal (z-score)", "setting": "[16]", "value": 0.696}, {"measurement": "glycan array binding signal (z-score)", "setting": "[17]", "value": -0.322}, {"measurement": "glycan array binding signal (z-score)", "setting": "[18]", "value": -0.663}, {"measurement": "glycan array binding signal (z-score)", "setting": "[19]", "value": -0.008}, {"measurement": "glycan array binding signal (z-score)", "setting": "[20]", "value": 0.774}, {"measurement": "glycan array binding signal (z-score)", "setting": "[21]", "value": 0.951}, {"measurement": "glycan array binding signal (z-score)", "setting": "[22]", "value": 0.266}, {"measurement": "glycan array binding signal (z-score)", "setting": "[23]", "value": -0.652}, {"measurement": "glycan array binding signal (z-score)", "setting": "[24]", "value": -0.18}, {"measurement": "glycan array binding signal (z-score)", "setting": "[25]", "value": -0.612}, {"measurement": "glycan array binding signal (z-score)", "setting": "[26]", "value": 0.755}, {"measurement": "glycan array binding signal (z-score)", "setting": "[27]", "value": -0.233}, {"measurement": "glycan array binding signal (z-score)", "setting": "[28]", "value": 0.565}, {"measurement": "glycan array binding signal (z-score)", "setting": "[29]", "value": -0.043}, {"measurement": "glycan array binding signal (z-score)", "setting": "[30]", "value": 2.08}]}]}
